# Laboratory results taken from the supplement of paper PMC8728848.
# Some of the results follow.
# B1: PX9961M-bvu-482-23-482 (Bacteroides vulgatus) (protein)
# chain: WLDLAPSTQVDTETSINVLSDIEFTLNGIYSTMQSSDAYSGRLVYYGDVTGDDMQAVSSTKRTGNYYRFNFTKDNGPSSHWSYLYSIIQNCNLILMNVDKLSIDEDETEYKNDLKGQALAIRGMALFDLTRIFGYPYLKDNGASLGVPIVKELSTIDSKPARNTVAECYTEIISDLKNSTELLSGDFNKGKVNRWAAMTLLSRVYLYKGEYNEALTMAENAIKGAEKEGYALWTNEEYPTAWGNDASASNPGEILFEIVNLTTDSPGKESMGYLNSYNGYDDMCITCSFYQLLKKDPKDVRLKILSFDKKYYAYVNKYQPQQGENITDANIPLIRLSEAYLNAAEAAVQTGDNAKAVKYLNSIVQRANPENSVEGKTLTLENVLDERRKELVAEGHRMYDVIRNGMTVKRIDVKDSDINKTKHNTAYMEYDWNFHKILLPIPKKEMDANPNMKQNPGYVD
# What was measured:
# Experiment in all cases: glycan array binding signal (z-score within array); higher = stronger binding
# Conditions in all cases: glycan notation: IUPAC condensed, linker removed
# [1] = target: GalNAc3S(b1-4)[Fuc(a1-3)]GlcNAc
# Summary of the method: (§1)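 Glycan array data came from 3228 arrays in the Consortium for Functional Glycomics database, and only arrays with an available protein sequence were kept. Glycan names were put into IUPAC-condensed notation, and columns mapping to the same glycan were averaged. The binding signal is a within-array Z-score, averaged across arrays of one protein sequence run at different concentrations or buffers and across linkers. A negative Z-score can be read as non-binding.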
# GalNAc4S6S(b1-4)GlcNAc = target: GalNAc4S6S(b1-4)GlcNAc
# Summary of the method: as §1
# GalNAc6S(b1-4)GlcNAc = target: GalNAc6S(b1-4)GlcNAc
# Summary of the method: as §1
# Glc(a1-4)Glc = target: Glc(a1-4)Glc
# Summary of the method: as §1
# [2] = target: Glc(a1-4)Glc(a1-4)Glc(a1-4)Glc
# Summary of the method: as §1
# Glc(a1-6)Glc(a1-6)Glc = target: Glc(a1-6)Glc(a1-6)Glc
# Summary of the method: as §1
# [3] = target: Glc(a1-6)Glc(a1-6)Glc(a1-6)Glc
# Summary of the method: as §1
# Glc(b1-4)Glc = target: Glc(b1-4)Glc
# Summary of the method: as §1
# Glc(b1-6)Glc = target: Glc(b1-6)Glc
# Summary of the method: as §1
# GlcA(b1-3)Gal = target: GlcA(b1-3)Gal
# Summary of the method: as §1
# GlcA(b1-3)GlcNAc = target: GlcA(b1-3)GlcNAc
# Summary of the method: as §1
# GlcA(b1-6)Gal = target: GlcA(b1-6)Gal
# Summary of the method: as §1
# [4] = target: GlcA3S(b1-3)Gal(b1-4)GlcNAc(b1-2)Man
# Summary of the method: as §1
# [5] = target: GlcA3S(b1-3)Gal(b1-4)GlcNAc(b1-3)Gal(b1-4)Glc
# Summary of the method: as §1
# [6] = target: GlcNAc(a1-3)Gal(b1-4)GlcNAc
# Summary of the method: as §1
# [7] = target: GlcNAc(a1-4)Gal(b1-3)GlcNAc
# Summary of the method: as §1
# [8] = target: GlcNAc(a1-4)Gal(b1-4)GalNAc
# Summary of the method: as §1
# [9] = target: GlcNAc(a1-4)Gal(b1-4)GlcNAc
# Summary of the method: as §1
# [10] = target: GlcNAc(a1-4)Gal(b1-4)GlcNAc(b1-3)Gal(b1-4)Glc
# Summary of the method: as §1
# [11] = target: GlcNAc(a1-4)Gal(b1-4)GlcNAc(b1-3)Gal(b1-4)GlcNAc
# Summary of the method: as §1
# [12] = target: GlcNAc(a1-4)Gal(b1-4)GlcNAc(b1-3)Gal(b1-4)GlcNAc(b1-3)Gal(b1-4)GlcNAc
# Summary of the method: as §1
# [13] = target: GlcNAc(a1-4)Gal(b1-4)GlcNAc(b1-3)Gal(b1-4)[Fuc(a1-3)]GlcNAc(b1-3)Gal(b1-4)[Fuc(a1-3)]GlcNAc
# Summary of the method: as §1
# [14] = target: GlcNAc(a1-6)Gal(b1-4)GlcNAc
# Summary of the method: as §1
# [15] = target: GlcNAc(b1-2)Gal(b1-3)GalNAc
# Summary of the method: as §1
# [16] = target: GlcNAc(b1-2)Man(a1-3)[GlcNAc(b1-2)Man(a1-6)]Man(b1-4)GlcNAc(b1-4)GlcNAc
# Summary of the method: as §1
# [17] = target: GlcNAc(b1-2)Man(a1-3)[GlcNAc(b1-2)Man(a1-6)]Man(b1-4)GlcNAc(b1-4)[Fuc(a1-6)]GlcNAc
# Summary of the method: as §1
# [18] = target: GlcNAc(b1-2)Man(a1-3)[GlcNAc(b1-4)][GlcNAc(b1-2)Man(a1-6)]Man(b1-4)GlcNAc(b1-4)GlcNAc
# Summary of the method: as §1
# [19] = target: GlcNAc(b1-2)Man(a1-3)[GlcNAc(b1-4)][GlcNAc(b1-2)Man(a1-6)]Man(b1-4)GlcNAc(b1-4)[Fuc(a1-6)]GlcNAc
# Summary of the method: as §1
# [20] = target: GlcNAc(b1-2)[GlcNAc(b1-4)]Man(a1-3)[GlcNAc(b1-2)Man(a1-6)]Man(b1-4)GlcNAc(b1-4)GlcNAc
# Summary of the method: as §1
# [21] = target: GlcNAc(b1-2)[GlcNAc(b1-4)]Man(a1-3)[GlcNAc(b1-4)][GlcNAc(b1-2)Man(a1-6)]Man(b1-4)GlcNAc(b1-4)GlcNAc
# Summary of the method: as §1
# [22] = target: GlcNAc(b1-2)[GlcNAc(b1-4)]Man(a1-3)[GlcNAc(b1-4)][GlcNAc(b1-2)[GlcNAc(b1-6)]Man(a1-6)]Man(b1-4)GlcNAc(b1-4)GlcNAc
# Summary of the method: as §1
# [23] = target: GlcNAc(b1-2)[GlcNAc(b1-4)]Man(a1-3)[GlcNAc(b1-4)][GlcNAc(b1-2)[GlcNAc(b1-6)]Man(a1-6)]Man(b1-4)GlcNAc(b1-4)[Fuc(a1-6)]GlcNAc
# Summary of the method: as §1
# [24] = target: GlcNAc(b1-2)[GlcNAc(b1-6)]Man(a1-6)[GlcNAc(b1-2)Man(a1-3)]Man(b1-4)GlcNAc(b1-4)GlcNAc
# Summary of the method: as §1
# [25] = target: GlcNAc(b1-2)[GlcNAc(b1-6)]Man(a1-6)[GlcNAc(b1-2)Man(a1-3)]Man(b1-4)GlcNAc(b1-4)[Fuc(a1-6)]GlcNAc
# Summary of the method: as §1
# [26] = target: GlcNAc(b1-2)[GlcNAc(b1-6)]Man(a1-6)[GlcNAc(b1-4)][GlcNAc(b1-2)Man(a1-3)]Man(b1-4)GlcNAc(b1-4)GlcNAc
# Summary of the method: as §1
# GlcNAc(b1-3)Fuc = target: GlcNAc(b1-3)Fuc
# Summary of the method: as §1
# GlcNAc(b1-3)Gal = target: GlcNAc(b1-3)Gal
# Summary of the method: as §1
# [27] = target: GlcNAc(b1-3)Gal(b1-3)GalNAc
# Summary of the method: as §1
binder,measurement,setting,value
B1,glycan array binding signal (z-score),[1],0.185
same,glycan array binding signal (z-score),GalNAc4S6S(b1-4)GlcNAc,-0.234
same,glycan array binding signal (z-score),GalNAc6S(b1-4)GlcNAc,-0.312
same,glycan array binding signal (z-score),Glc(a1-4)Glc,-0.306
same,glycan array binding signal (z-score),[2],-0.129
same,glycan array binding signal (z-score),Glc(a1-6)Glc(a1-6)Glc,-0.267
same,glycan array binding signal (z-score),[3],-0.604
same,glycan array binding signal (z-score),Glc(b1-4)Glc,-0.796
same,glycan array binding signal (z-score),Glc(b1-6)Glc,0.451
same,glycan array binding signal (z-score),GlcA(b1-3)Gal,-0.531
same,glycan array binding signal (z-score),GlcA(b1-3)GlcNAc,-0.533
same,glycan array binding signal (z-score),GlcA(b1-6)Gal,-0.315
same,glycan array binding signal (z-score),[4],0.097
same,glycan array binding signal (z-score),[5],-0.198
same,glycan array binding signal (z-score),[6],-0.238
same,glycan array binding signal (z-score),[7],0.01
same,glycan array binding signal (z-score),[8],-0.109
same,glycan array binding signal (z-score),[9],-0.43
same,glycan array binding signal (z-score),[10],-0.476
same,glycan array binding signal (z-score),[11],1.06
same,glycan array binding signal (z-score),[12],-0.106
same,glycan array binding signal (z-score),[13],1.06
same,glycan array binding signal (z-score),[14],-0.826
same,glycan array binding signal (z-score),[15],-0.274
same,glycan array binding signal (z-score),[16],-0.183
same,glycan array binding signal (z-score),[17],-0.253
same,glycan array binding signal (z-score),[18],-0.065
same,glycan array binding signal (z-score),[19],-0.454
same,glycan array binding signal (z-score),[20],-0.681
same,glycan array binding signal (z-score),[21],-0.235
same,glycan array binding signal (z-score),[22],0.041
same,glycan array binding signal (z-score),[23],-0.608
same,glycan array binding signal (z-score),[24],0.029
same,glycan array binding signal (z-score),[25],-0.618
same,glycan array binding signal (z-score),[26],0.246
same,glycan array binding signal (z-score),GlcNAc(b1-3)Fuc,0.451
same,glycan array binding signal (z-score),GlcNAc(b1-3)Gal,-0.666
same,glycan array binding signal (z-score),[27],0.559

# Another view of some results above.
binder	measurement	setting	value
B1	glycan array binding signal (z-score)	[13]	1.06
same	glycan array binding signal (z-score)	[14]	-0.826
same	glycan array binding signal (z-score)	[15]	-0.274
